The target in experiment [1] is ovalbumin, freshly dissolved (native OVA) (chicken) (UniProt P01012). Nature of the experiment: ELISA, coated protein, tPA F-EGF dilution series. A general note: ELISA stands for enzyme-linked immunosorbent assay.
The target in experiment [2] is heat-denatured misfolded ovalbumin (chicken) (UniProt P01012). Nature of the experiment: ELISA, coated protein, tPA F-EGF dilution series.

Chains of the proteins cited; added tags and fusions are not shown. Residues count along the entry.
UniProt P01012, residues 2-386: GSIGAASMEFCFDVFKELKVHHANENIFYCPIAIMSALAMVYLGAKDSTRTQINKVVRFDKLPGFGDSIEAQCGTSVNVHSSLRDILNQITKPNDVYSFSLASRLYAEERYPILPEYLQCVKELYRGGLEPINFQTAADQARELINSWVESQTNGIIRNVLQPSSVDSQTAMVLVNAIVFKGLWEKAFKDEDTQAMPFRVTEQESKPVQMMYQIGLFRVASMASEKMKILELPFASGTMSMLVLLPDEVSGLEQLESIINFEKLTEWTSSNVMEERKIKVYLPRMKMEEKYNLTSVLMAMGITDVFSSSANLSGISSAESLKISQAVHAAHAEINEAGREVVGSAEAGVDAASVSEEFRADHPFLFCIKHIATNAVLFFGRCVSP

These are yes or no findings as the source states them, for the method shown. Some entries that bind do so weakly or less than the wild type. Tags and fused reporters may be left off the sequences shown.

B1: human tissue-type plasminogen activator finger EGF (tPA F-EGF) fragment with carboxy-terminal FLAG-tag-His-tag (protein, UniProt P00750 36-120, looked up, not shown: small tags and cut ends)
chain: SYQVICRDEKTQMIYQQHQSWLRPVLRSNRVEYCWCNSGRAQCHSVPVKSCSEPRCFNGGTCQQALYFSDFVCQCPEGFAGKCCE
As for B1, the binding entry in experiment [1] and in experiment [2] was “binds” throughout.

Source of the values: US20080207488A1, “Method for Detecting Peptides Comprising a Cross-B Structure” (priority 2005, published 2008).
